In patent US3991200A, “Substituted nitroimidazolyl thiadiazoles and oxadiazoles as antibacterial agents and growth promoting compounds” (American Cyanamid Company, priority 1973, dated 1976):
Where a name gives a salt, the structure may show the parent alone. At least one compound was matched to its structure with a doubt left.

Assay: behaviour of hydrochloride in water
Format: physicochemical
Settings: no alkali

For `Cn1c([N+](=O)[O-])cnc1-c1nnc(N)s1` [2-(2-Amino-5-thiadiazolyl)-1-methyl-5-nitroimidazole Hydrochloride], the “behaviour on addition to water, in words” value was “the free base is formed again”.
